PubChem BioAssay AID1224828 – NIAID | 2016

Screen: 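Regulators linking TLR4 signalling to p65 nuclear translocation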 (primary screen)
Cell system: mouse RAW264.7 G9 macrophage reporter cells (GFP-p65, Tnf promoter-mCherry)
Knock-down reagent: siRNA pool against mouse genes, 100 nM
Duration: 2 days siRNA transfection, then 40 min LPS before fixation
Conditions: LPS (Salmonella minnesota R595) at 10 ng/ml
Measurement: 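Imaged p65 nuclear translocation ratio, normalised to the plate median, converted to robust z-scores and averaged across two replicates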
Direction: p65 translocation robust z-score: higher = more nuclear NF-kappaB p65 after LPS than the plate median; nuclear/cytoplasmic p65 ratio: higher = more nuclear NF-kappaB p65
Active means: 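Active if robust z is above 3.3 (negative regulators) or below -1.56, the Tlr4 control median (positive regulators); activity score 50 or more; control wells not called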
Calls: active = hit (p65 shift raised or lowered); inactive = no clear change
In all, the deposit lists about 17,000 reagents; below is a random part of them. Over the whole deposit, 762 (4.5%) got an active call. 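Active calls include both raised and lowered p65 entry, mostly lowered; wells with fewer than 50 cells lack a z-score.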 Raw values are not corrected between plates. A reagent listed more than once was tested more than once; the source does not tell the runs apart.

| p65 translocation robust z-score | nuclear/cytoplasmic p65 ratio, rep 1 | nuclear/cytoplasmic p65 ratio, rep 2 | low cell count flag | outcome | gene knocked down |
| --- | --- | --- | --- | --- | --- |
| -1.15 | 1.47 | 1.41 | enough cells to score | inactive | a (GeneID 50518) |
| -0.03 | 1.66 | 1.57 | enough cells to score | inactive | Bmal2 (GeneID 272322) |
| -1.34 | 1.42 | 1.58 | enough cells to score | inactive | Mettl25b (GeneID 229503) |
| 0.31 | 1.6 | 1.72 | enough cells to score | inactive | Ntng1 (GeneID 80883) |
| 0.85 | 1.69 | 1.93 | enough cells to score | inactive | Rnasek (GeneID 52898) |
| – | 1.19 | 1 | fewer than 50 cells per well; well left out of scoring | inactive | Ccdc181 (GeneID 74895) |
| -1.9 | 1.23 | 1.2 | enough cells to score | active | Ccdc163 (GeneID 68394) |
| 1.27 | 1.85 | 1.79 | enough cells to score | inactive | Firrm (GeneID 381306) |
| – | 1.77 | 1.45 | fewer than 50 cells per well; well left out of scoring | inactive | Or6c74 (GeneID 258772) |
| -0.73 | 1.27 | 1.22 | enough cells to score | inactive | Krtap9-3 (GeneID 75586) |
| 0.46 | 1.97 | 1.44 | enough cells to score | inactive | Obox6 (GeneID 252830) |
| 0.39 | 1.51 | 1.49 | enough cells to score | inactive | Prnp (GeneID 19122) |
| -0.4 | 1.4 | 1.35 | enough cells to score | inactive | Ilf3 (GeneID 16201) |
| – | 1.49 | 1.61 | fewer than 50 cells per well; well left out of scoring | inactive | Dcaf15 (GeneID 212123) |
| -0.63 | 1.32 | 1.3 | enough cells to score | inactive | Mrpl1 (GeneID 94061) |
| 0.9 | 1.69 | 1.81 | enough cells to score | inactive | Apcs (GeneID 20219) |
| 0.05 | 1.55 | 1.85 | enough cells to score | inactive | Casz1 (GeneID 69743) |
| 0.62 | 1.63 | 1.58 | enough cells to score | inactive | Sat1 (GeneID 20229) |
| -1.84 | 1.44 | 1.26 | enough cells to score | active | Tenm2 (GeneID 23964) |
| -0.37 | 1.59 | 1.71 | enough cells to score | inactive | Klhl25 (GeneID 207952) |
| 0.76 | 1.66 | 1.66 | enough cells to score | inactive | Or2b2b (GeneID 258536) |
| 0.47 | 1.57 | 1.67 | enough cells to score | inactive | Or10j2 (GeneID 258645) |
| -0.08 | 1.71 | 1.53 | enough cells to score | inactive | Mat2b (GeneID 108645) |
| 1.93 | 1.92 | 1.65 | enough cells to score | inactive | Or12k5 (GeneID 227789) |
| 0.78 | 1.49 | 1.45 | enough cells to score | inactive | Rsph9 (GeneID 75564) |
| -0.62 | 1.3 | 1.29 | enough cells to score | inactive | Eif5b (GeneID 226982) |
| -0.54 | 1.38 | 1.38 | enough cells to score | inactive | Cyth4 (GeneID 72318) |
| -0.63 | 1.25 | 1.15 | enough cells to score | inactive | Grem2 (GeneID 23893) |
| -0.09 | 1.36 | 1.42 | enough cells to score | inactive | Yeats4 (GeneID 64050) |
| 2.83 | 1.64 | 1.93 | enough cells to score | inactive | Lrif1 (GeneID 321000) |
| 0.32 | 1.42 | 1.44 | enough cells to score | inactive | Mphosph6 (GeneID 68533) |
| 0.64 | 1.64 | 1.53 | enough cells to score | inactive | Fmc1 (GeneID 66117) |
| -0.83 | 1.43 | 1.44 | enough cells to score | inactive | Artn (GeneID 11876) |
| -0.52 | 1.48 | 1.41 | enough cells to score | inactive | Hnf1a (GeneID 21405) |
| -0.8 | 1.41 | 1.71 | enough cells to score | inactive | Ctsm (GeneID 64139) |
| 0.26 | 1.55 | 1.64 | enough cells to score | inactive | B3galt2 (GeneID 26878) |
| 0.11 | 1.61 | 1.39 | enough cells to score | inactive | Cdc25a (GeneID 12530) |
| 1.28 | 1.83 | 1.55 | enough cells to score | inactive | Akt1 (GeneID 11651) |
| 1 | 1.72 | 1.65 | enough cells to score | inactive | Akt1 (GeneID 11651) |
| 1.49 | 1.81 | 1.45 | enough cells to score | inactive | Lrrc14 (GeneID 223664) |
| -1.38 | 1.41 | 1.53 | enough cells to score | inactive | Ca15 (GeneID 80733) |
| 1 | 1.61 | 1.68 | enough cells to score | inactive | Tyms (GeneID 22171) |
| 0.3 | 1.83 | 1.34 | enough cells to score | inactive | Cdk7 (GeneID 12572) |
| -1.4 | 1.24 | 1.36 | enough cells to score | inactive | Cep104 (GeneID 230967) |
| -0.24 | 1.4 | 1.21 | enough cells to score | inactive | Zfp61 (GeneID 22719) |
| 1.92 | – | 1.91 | enough cells to score | inactive | Adamtsl2 (GeneID 77794) |
| -0.3 | 1.37 | 1.18 | enough cells to score | inactive | Vamp4 (GeneID 53330) |
| 0.58 | 1.7 | 1.58 | enough cells to score | inactive | Apba1 (GeneID 319924) |
| 1.9 | 1.78 | 1.73 | enough cells to score | inactive | Emc3 (GeneID 66087) |
| 2.15 | 1.76 | 1.65 | enough cells to score | inactive | Cenpa (GeneID 12615) |
| 1.05 | 1.71 | 1.42 | enough cells to score | inactive | Cbfa2t3 (GeneID 12398) |
| -0.73 | 1.47 | 1.35 | enough cells to score | inactive | Or6b3 (GeneID 259041) |
| -1.29 | 1.31 | 1.2 | enough cells to score | inactive | Cpt1a (GeneID 12894) |
| 1.32 | 1.62 | 1.85 | enough cells to score | inactive | Adra2a (GeneID 11551) |
| 1.38 | 1.87 | 1.84 | enough cells to score | inactive | Adm2 (GeneID 223780) |
| -0.63 | 1.39 | 1.31 | enough cells to score | inactive | Nampt (GeneID 59027) |
| 1.01 | 1.58 | 1.54 | enough cells to score | inactive | Klra10 (GeneID 16628) |
| -0.88 | 1.2 | 1.14 | enough cells to score | inactive | Tmem216 (GeneID 68642) |
| -1.66 | 1.25 | 1.54 | enough cells to score | active | Noc2l (GeneID 57741) |
| -1.08 | 1.19 | 1.1 | enough cells to score | inactive | Rps13 (GeneID 68052) |
| – | 1.3 | 1.25 | fewer than 50 cells per well; well left out of scoring | inactive | Cntnap5b (GeneID 241175) |
| 1.13 | 1.27 | 1.39 | enough cells to score | inactive | Shprh (GeneID 268281) |
| -0.68 | 1.63 | 1.43 | enough cells to score | inactive | Lhx2 (GeneID 16870) |
| -0.73 | 1.44 | 1.76 | enough cells to score | inactive | Osgin2 (GeneID 209212) |
| -1.7 | 1.15 | 1.31 | enough cells to score | active | Map2k3os (GeneID 24082) |
| – | 1.53 | 1.3 | fewer than 50 cells per well; well left out of scoring | inactive | Cdc50a (GeneID 69981) |
| -0.05 | 1.53 | 1.32 | enough cells to score | inactive | Ppfia2 (GeneID 327814) |
| – | 1.09 | 1.15 | fewer than 50 cells per well; well left out of scoring | inactive | Runx2 (GeneID 12393) |
| -0.79 | 1.42 | 1.47 | enough cells to score | inactive | Tcf25 (GeneID 66855) |
| – | 1.27 | 1.14 | fewer than 50 cells per well; well left out of scoring | inactive | Rhcg (GeneID 56315) |
| – | 1.23 | 1.28 | fewer than 50 cells per well; well left out of scoring | inactive | Slc38a2 (GeneID 67760) |
| -0.09 | 1.37 | 1.23 | enough cells to score | inactive | Vmn1r200 (GeneID 171246) |
| 0.48 | 1.72 | 1.66 | enough cells to score | inactive | Dlgap1 (GeneID 224997) |
| 0.22 | 1.7 | 1.78 | enough cells to score | inactive | Rmp64 (GeneID 212547) |
| 0.06 | 1.36 | 1.21 | enough cells to score | inactive | Timd2 (GeneID 171284) |

Taken from above:
Entry of Cenpa (GeneID 12615) under “outcome”: inactive
Lrif1 (GeneID 321000), low cell count flag → enough cells to score
Value for Osgin2 (GeneID 209212) in “nuclear/cytoplasmic p65 ratio, rep 1”: 1.44
Runx2 (GeneID 12393), outcome: inactive
Cdc25a (GeneID 12530), low cell count flag → enough cells to score
